From article PMC9952706
For at least one entry, the source does not settle the construct or the ends of the probe. Protein sequences can lack the tags named with them.

target: T1, AdpA (His-tagged) (Streptomyces coelicolor M145) (UniProt Q9L062); experiment: EMSA; settings: 0-3 µM AdpA, 20 nM probe, 2 µg poly(dI-dC), EMSA: 20 mM Tris-HCl pH 8.0, 2 mM EDTA, 20 mM KCl, 0.5 mM DTT, 4% Ficoll-400, 2 µg poly(dI-dC), room temperature, 25 min, recombinant protein, protein details: His tag (pET15b, NdeI/XhoI), probe letters rebuilt from the primers and the genome
T1 sequence (looked up, limits assumed): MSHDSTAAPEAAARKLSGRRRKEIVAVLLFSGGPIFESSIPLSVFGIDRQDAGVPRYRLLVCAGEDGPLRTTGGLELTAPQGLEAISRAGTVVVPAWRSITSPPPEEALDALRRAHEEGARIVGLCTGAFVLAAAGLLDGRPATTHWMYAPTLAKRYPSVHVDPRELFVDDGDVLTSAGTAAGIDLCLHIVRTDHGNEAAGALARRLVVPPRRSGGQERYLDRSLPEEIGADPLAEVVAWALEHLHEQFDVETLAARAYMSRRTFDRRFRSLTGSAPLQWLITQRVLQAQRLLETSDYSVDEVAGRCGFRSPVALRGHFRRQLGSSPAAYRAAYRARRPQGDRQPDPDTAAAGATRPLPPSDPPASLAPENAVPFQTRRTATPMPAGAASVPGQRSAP

Binding result, binds:
AGGTCGACGACCCCGCTCATGGACATGTTCCGTGGCTGCATGGGTCTATCCTCCCCCGTACGGCGCGCGCGTGTGAAAACCGGGTCGAAAGCCCGCCCGGATGTGTGCTGTTCGGCGTGTGTACTGCCCGATGCGTGTGCTGCTCGGCGCCGGGTCCCCACCCCACGCCCGTGGTCGTCGCTGGGGCGCGGGCGGACCCGCGCTTTCGCTACGAGTCGTAGCGTAATGCCAGGACGGCCCGTCGGAACACCCCACCGCCAGACCCCGTCGCGGTGATCTGTCTCACCACCGGCCGCGTGTTACCCGCCGGTTAAGGTCGGGGGATGCAGAGCAGC (double strand) [trxA4 (sco5419) promoter probe], CTACAAGGGCAGGGAAGCCTTGCTGGTGGTACTGCCCGACGCCACCAATGACACCCAGGTCACCGCCTACATCGTCGAGACGGCGTGCGTGGATCAGCCCGCGGTGGGCAAGGCCAAGATCCTTCTCGAGCACTCCTACGCGCGTTCGTAGCGGCCCTTCCACCCTCTCGCCAGGCGGGCTGTGCCCTGCCGCCGTGTGCCCGGGCACAGCGGGAATGCGCGCCCCGTAGGATCCGTTAGGTGGGGTGAGAGTTCCGAGTGCAGCTCCACCCGGCCCTGAAGACGCAGTCCAGAGACGAGGAATGAAGCCGTGAGCGACGTCCGAAACGTGATC (double strand) [trxB (sco3890) promoter probe], TTGCTGGGCATGCACGCCCAGTAGGAGCATTCGCCGCCGACCAGTTCGCTCTCCACGATCGCGGTGGACAGTCCGGCCGCCCGGGTGCGGTCGGCGACGTTCTCGCCGACGGGGCCCGCGCCGATCACGACGACGTCGTACGTGAGGGAATCCGATTGCGTCATGGGGTCAGTCTGGTGGGTGGTGTGCGGCGTGGCCACATGGGTACGTGCGCGGAATACCCACCAGGTCGGCAGTGTTGTGCCGACGGCTTCTCCCCCGAAACCAGGAAGAGGGATCACCTCATGACCAGCACCGTGGAACTCACCAAG (double strand) [trxA3/C (sco0885) promoter probe]
